From the supplement of paper PMC4604168 (melanoma cell lines)
Some of the results follow. Many values rest on one well or one pass, so single values are uncertain.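 Imaging used 1,536-well plates; nuclei positive for cleaved PARP by antibody were divided by total DNA-stained nuclei to yield the apoptosis fraction. Doses for screening kept most cells viable, and cell lines differ markedly in resting and induced cleaved-PARP levels.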

How the values were obtained:
Experiment in all cases: cleaved PARP positive nuclei fraction relative to DMSO control; melanoma cells; higher = more apoptosis
Conditions in all cases: library dose: low library concentration; 72 h
MZ2-MEL = system: MZ2-MEL
MeWo = system: MeWo
RPMI7951 = system: RPMI7951
RVH-421 = system: RVH-421
SkMel28 = system: SkMel28
SkMel30 = system: SkMel30
SkMel5 = system: SkMel5
UACC257 = system: UACC257
UACC62 = system: UACC62
WM115 = system: WM115
WM1716 = system: WM1716
WM1745 = system: WM1745
WM3526 = system: WM3526
WM3619 = system: WM3619
WM451Lu = system: WM451Lu

Compound | cleaved PARP positive nuclei fraction (MZ2-MEL) | cleaved PARP positive nuclei fraction (MeWo) | cleaved PARP positive nuclei fraction (RPMI7951) | cleaved PARP positive nuclei fraction (RVH-421) | cleaved PARP positive nuclei fraction (SkMel28) | cleaved PARP positive nuclei fraction (SkMel30) | cleaved PARP positive nuclei fraction (SkMel5) | cleaved PARP positive nuclei fraction (UACC257) | cleaved PARP positive nuclei fraction (UACC62) | cleaved PARP positive nuclei fraction (WM115) | cleaved PARP positive nuclei fraction (WM1716) | cleaved PARP positive nuclei fraction (WM1745) | cleaved PARP positive nuclei fraction (WM3526) | cleaved PARP positive nuclei fraction (WM3619) | cleaved PARP positive nuclei fraction (WM451Lu)
C[As](C)SC[C@H](NC(=O)CC[C@H](N)C(=O)O)C(=O)NCC(=O)O [Darinaparsin] + CCN(CC)CCCCNc1ncc2cc(-c3cc(OC)cc(OC)c3)c(NC(=O)NC(C)(C)C)nc2n1 [PD173074] (first compound 0.4 µM, partner dose 0.1 µM) | 64% | 50.6% | 56.1% | 95.2% | 126% | 24% | 64.1% | 151% | 25.6% | 129% | 206% | 111% | 58.6% | 179% | 55.1%
Cn1c(Nc2ccc(C(F)(F)F)cc2)nc2cc(Oc3ccnc(-c4ncc(C(F)(F)F)[nH]4)c3)ccc21 + C/C(O)=C(\C#N)C(=O)Nc1cc(Br)ccc1Br [LFM-A13] (first compound 0.08 µM, partner dose 2 µM) | 82.1% | 147% | 138% | 179% | 317% | 113% | 74.8% | 3050% | 256% | 946% | 200% | 164% | 56.8% | 163% | 277%
C[C@]12O[C@H](C[C@]1(O)CO)n1c3ccccc3c3c4c(c5c6ccccc6n2c5c31)CNC4=O [Lestaurtinib] + CCCCCCCCCCCC1=C(O)C(=O)C=C(O)C1=O [Embelin] (first compound 0.004 µM, partner dose 1.2 µM) | 134% | 46.3% | 85.3% | 217% | 142% | 29.6% | 150% | 40.3% | 66.5% | 25.6% | 45.6% | 91.6% | 133% | 120% | 141%
Cc1cc(SCc2sc(-c3ccc(C(F)(F)F)c(F)c3)nc2C)ccc1OCC(=O)O + Oc1nc(-c2ccc(C(F)(F)F)cc2)nc2c1CSCC2 [XAV939] (first compound 2 µM, partner dose 2 µM) | 147% | 57.5% | 41.2% | 50% | 216% | 123% | 207% | 186% | 106% | 144% | 442% | 111% | 66.7% | 92.7% | 41.6%
